Results from article doi:10.1101/260919.
Changes are numbered by the printed parent chain. These are yes or no findings as the source states them, for the method shown. In cells and extracts the contact can be indirect. Some entries that bind do so weakly or less than the wild type. For part of these data: Where a sequence is shown, tags or fusion partners need not be part of it.

Sequences of proteins named here, by UniProt entry; tags and fusion partners are left off. A change or cut given only in a name is not applied to a line headed by its entry. A line that says so, or that is headed by a name, gives the form on record, which may keep a tag or linker.
UniProt Q96P20: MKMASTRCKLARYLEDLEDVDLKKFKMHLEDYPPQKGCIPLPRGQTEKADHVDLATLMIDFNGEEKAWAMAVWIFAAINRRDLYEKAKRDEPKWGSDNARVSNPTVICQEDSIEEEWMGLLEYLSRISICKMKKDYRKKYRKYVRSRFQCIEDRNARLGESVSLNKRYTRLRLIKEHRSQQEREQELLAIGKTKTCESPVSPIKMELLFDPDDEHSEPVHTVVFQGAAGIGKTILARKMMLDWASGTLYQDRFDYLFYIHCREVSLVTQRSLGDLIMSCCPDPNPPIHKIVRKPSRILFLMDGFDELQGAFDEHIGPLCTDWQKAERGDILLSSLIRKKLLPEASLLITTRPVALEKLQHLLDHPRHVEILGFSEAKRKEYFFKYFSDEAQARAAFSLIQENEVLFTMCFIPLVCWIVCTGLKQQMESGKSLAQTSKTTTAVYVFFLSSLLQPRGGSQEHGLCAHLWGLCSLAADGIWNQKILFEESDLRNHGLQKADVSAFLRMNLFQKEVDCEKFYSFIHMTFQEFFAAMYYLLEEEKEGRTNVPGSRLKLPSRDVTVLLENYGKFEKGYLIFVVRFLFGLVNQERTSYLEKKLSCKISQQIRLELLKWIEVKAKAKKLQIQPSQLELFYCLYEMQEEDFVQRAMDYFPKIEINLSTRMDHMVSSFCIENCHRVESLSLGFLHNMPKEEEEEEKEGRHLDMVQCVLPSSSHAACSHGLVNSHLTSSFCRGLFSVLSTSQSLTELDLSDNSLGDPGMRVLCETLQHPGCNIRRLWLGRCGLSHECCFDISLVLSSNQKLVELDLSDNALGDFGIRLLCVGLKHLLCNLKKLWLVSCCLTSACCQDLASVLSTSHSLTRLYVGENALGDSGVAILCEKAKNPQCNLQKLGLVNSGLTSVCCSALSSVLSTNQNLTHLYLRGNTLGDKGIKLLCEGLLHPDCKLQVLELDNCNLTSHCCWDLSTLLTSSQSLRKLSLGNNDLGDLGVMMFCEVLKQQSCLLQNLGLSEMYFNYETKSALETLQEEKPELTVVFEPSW
endogenous DPP9 (dipeptidyl peptidase 9) (Q86TI2-2, form named): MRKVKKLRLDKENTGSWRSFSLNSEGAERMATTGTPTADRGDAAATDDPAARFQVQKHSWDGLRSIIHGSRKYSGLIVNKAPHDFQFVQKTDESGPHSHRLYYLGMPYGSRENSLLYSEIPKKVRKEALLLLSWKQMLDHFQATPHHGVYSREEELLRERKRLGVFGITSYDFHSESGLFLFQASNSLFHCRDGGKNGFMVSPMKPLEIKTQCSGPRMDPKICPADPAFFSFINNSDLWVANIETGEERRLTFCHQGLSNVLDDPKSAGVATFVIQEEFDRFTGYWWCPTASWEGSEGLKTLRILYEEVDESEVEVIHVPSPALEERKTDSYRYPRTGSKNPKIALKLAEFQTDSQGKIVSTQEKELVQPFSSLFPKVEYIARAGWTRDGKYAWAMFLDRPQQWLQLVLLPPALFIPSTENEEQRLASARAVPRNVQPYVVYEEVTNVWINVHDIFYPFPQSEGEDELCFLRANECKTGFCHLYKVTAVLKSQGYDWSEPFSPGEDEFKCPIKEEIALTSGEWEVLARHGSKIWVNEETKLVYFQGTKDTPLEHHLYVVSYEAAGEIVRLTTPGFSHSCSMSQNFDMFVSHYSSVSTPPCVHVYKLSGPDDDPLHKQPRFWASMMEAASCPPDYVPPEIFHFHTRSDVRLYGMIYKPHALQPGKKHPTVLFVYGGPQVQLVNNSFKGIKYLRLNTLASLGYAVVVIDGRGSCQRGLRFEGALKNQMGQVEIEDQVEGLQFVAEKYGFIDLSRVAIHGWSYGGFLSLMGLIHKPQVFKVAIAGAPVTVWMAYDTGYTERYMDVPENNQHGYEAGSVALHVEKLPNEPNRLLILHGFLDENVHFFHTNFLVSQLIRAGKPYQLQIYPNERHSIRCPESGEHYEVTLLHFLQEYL

Tests used:
Test in all cases: co-IP
[1] = target: T1, FLAG-tagged full-length NLRP1 (human) (UniProt Q9C000)
T1 sequence: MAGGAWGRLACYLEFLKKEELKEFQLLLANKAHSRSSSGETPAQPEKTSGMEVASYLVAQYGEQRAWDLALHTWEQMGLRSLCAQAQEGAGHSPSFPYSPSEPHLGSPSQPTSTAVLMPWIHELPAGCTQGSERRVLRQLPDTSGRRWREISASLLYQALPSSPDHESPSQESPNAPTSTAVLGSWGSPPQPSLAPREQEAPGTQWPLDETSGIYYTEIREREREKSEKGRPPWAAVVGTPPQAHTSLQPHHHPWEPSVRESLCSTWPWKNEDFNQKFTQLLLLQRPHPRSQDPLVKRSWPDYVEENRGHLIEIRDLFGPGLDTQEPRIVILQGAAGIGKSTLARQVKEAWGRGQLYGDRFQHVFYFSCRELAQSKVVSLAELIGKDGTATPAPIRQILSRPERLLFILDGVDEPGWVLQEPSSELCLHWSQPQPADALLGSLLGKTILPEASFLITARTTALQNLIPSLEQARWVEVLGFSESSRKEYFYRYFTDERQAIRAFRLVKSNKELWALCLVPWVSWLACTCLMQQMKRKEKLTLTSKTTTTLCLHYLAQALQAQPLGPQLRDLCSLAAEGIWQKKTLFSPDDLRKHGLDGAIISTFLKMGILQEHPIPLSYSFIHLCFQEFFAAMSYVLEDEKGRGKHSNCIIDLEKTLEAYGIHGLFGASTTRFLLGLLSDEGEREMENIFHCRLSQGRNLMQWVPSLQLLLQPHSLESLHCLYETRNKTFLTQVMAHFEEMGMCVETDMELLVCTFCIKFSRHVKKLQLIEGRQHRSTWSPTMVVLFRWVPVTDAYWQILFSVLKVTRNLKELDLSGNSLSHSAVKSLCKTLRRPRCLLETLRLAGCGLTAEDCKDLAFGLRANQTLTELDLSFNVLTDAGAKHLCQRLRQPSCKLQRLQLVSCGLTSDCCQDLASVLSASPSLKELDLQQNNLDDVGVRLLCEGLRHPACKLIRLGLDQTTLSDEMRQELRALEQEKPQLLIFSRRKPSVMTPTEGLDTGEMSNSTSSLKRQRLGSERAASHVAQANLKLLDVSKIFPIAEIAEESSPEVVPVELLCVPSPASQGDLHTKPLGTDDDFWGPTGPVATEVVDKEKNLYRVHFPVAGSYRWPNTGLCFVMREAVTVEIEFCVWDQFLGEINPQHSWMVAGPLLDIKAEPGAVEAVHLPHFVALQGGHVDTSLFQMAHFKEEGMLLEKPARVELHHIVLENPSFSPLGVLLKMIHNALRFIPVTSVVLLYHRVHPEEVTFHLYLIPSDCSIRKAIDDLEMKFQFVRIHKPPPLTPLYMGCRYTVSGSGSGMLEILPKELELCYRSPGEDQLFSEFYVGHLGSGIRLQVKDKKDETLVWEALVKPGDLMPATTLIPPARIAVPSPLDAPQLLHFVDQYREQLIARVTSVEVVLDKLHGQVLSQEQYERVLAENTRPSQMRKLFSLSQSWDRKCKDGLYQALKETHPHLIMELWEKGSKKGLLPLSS

[2] = target: T2, full length NLRP1 p.P1214R (NAIAD mutation) (human) (UniProt Q9C000)
T2 sequence: T1 sequence with P1214R

[3] = target: T3, NLRP1-FIIND (a.a. 986-1373) (human) (UniProt Q9C000)
T3 sequence: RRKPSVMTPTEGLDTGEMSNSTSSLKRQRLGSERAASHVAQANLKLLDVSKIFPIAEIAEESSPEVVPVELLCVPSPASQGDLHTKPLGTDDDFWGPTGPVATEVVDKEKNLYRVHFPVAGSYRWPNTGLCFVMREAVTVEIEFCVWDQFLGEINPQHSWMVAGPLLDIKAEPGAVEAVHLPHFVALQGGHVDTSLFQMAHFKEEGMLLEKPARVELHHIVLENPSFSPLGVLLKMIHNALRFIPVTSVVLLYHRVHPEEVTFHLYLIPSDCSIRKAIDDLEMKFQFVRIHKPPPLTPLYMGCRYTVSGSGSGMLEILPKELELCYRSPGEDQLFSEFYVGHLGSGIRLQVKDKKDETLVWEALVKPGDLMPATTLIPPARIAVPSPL

[4] = target: NLRP3 (UniProt Q96P20)
[5] = target: T4, NLRP1 a.a. 1213-1373 (carboxy-terminal fragment of the FIIND domain) (human) (UniProt Q9C000)
T4 sequence: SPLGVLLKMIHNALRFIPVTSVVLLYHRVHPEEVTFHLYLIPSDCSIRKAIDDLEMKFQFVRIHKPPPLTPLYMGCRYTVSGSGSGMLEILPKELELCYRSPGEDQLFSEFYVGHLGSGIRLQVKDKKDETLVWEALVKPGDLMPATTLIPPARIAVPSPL

Substance | binding [1] | binding [2] | binding [3] | binding [4] | binding [5]
DPP9L (long splice isoform of DPP9), transfected (from UniProt Q86TI2-2 1-892) (enzyme) | binds | – | – | – | –
endogenous DPP9 (dipeptidyl peptidase 9) (from UniProt Q86TI2-2 1-892) (enzyme) | binds | no binding | binds | no binding | no binding
